Source: paper PMC8863895
Results are given in words; binding and its absence hold for the method and conditions named.

Chains of the proteins cited; added tags and fusions are not shown. Lines headed by an entry give the natural chain unless they say otherwise; changes in a name come on top. Residues count along the entry.
UniProt P10643, residues 23-843: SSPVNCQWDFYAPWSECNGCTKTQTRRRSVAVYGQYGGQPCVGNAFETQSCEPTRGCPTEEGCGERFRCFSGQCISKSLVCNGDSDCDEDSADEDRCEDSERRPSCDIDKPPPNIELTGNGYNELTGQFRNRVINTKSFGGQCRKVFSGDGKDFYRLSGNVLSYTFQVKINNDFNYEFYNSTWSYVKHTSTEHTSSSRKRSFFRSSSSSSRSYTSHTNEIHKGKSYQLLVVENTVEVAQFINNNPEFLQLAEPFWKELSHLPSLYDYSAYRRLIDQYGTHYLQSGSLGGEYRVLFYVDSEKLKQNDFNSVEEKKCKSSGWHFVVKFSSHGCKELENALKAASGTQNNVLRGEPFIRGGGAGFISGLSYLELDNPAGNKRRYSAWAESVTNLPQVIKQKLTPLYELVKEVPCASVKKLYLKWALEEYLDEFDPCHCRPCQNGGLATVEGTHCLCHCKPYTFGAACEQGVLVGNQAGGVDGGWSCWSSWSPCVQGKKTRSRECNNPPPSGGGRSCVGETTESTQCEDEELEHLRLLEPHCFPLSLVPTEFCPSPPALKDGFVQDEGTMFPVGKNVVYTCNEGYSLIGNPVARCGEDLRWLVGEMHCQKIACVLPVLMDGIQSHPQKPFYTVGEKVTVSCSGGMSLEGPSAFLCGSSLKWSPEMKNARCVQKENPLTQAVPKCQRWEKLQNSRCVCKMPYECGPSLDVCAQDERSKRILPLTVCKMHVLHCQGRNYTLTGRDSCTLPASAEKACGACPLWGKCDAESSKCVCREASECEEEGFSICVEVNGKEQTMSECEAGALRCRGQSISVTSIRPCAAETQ
UniProt P07357: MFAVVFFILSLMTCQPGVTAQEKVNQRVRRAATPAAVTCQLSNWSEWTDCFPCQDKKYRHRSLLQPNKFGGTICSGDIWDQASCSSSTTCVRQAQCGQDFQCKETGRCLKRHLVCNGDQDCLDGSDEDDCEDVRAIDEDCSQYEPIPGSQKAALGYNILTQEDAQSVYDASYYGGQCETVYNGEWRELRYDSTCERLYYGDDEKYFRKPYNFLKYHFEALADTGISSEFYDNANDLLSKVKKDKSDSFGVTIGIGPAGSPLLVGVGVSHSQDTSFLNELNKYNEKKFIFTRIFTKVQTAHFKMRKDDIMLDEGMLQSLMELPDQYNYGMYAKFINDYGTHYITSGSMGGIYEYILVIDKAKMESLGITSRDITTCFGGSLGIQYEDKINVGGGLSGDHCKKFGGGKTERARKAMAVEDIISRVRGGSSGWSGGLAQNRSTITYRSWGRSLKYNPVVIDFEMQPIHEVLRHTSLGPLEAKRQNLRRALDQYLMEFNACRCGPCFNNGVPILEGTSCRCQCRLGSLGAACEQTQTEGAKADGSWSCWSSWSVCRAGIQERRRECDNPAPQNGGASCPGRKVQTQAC
UniProt P07358: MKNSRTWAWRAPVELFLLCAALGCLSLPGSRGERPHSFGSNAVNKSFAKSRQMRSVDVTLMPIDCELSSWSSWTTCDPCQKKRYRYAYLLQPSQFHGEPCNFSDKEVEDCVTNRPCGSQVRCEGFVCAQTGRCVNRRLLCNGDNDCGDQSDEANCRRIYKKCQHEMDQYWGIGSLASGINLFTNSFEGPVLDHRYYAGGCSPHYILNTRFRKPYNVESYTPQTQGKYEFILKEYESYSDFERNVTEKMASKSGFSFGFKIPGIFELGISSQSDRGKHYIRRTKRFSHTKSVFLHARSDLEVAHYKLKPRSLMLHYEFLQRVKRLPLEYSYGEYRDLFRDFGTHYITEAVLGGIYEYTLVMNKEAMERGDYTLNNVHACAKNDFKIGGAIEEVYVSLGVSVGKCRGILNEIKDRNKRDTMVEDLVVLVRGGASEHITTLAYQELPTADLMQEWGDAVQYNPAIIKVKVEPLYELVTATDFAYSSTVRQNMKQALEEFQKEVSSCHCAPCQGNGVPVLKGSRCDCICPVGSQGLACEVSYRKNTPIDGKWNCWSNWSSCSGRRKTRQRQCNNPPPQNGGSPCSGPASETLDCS
UniProt P07360: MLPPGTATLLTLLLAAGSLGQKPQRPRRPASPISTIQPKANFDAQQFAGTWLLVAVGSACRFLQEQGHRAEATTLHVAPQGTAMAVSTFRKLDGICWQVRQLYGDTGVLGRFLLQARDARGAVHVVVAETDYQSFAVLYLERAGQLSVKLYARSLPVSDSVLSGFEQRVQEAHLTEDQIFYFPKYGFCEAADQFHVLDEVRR
UniProt P02748, residues 22-559: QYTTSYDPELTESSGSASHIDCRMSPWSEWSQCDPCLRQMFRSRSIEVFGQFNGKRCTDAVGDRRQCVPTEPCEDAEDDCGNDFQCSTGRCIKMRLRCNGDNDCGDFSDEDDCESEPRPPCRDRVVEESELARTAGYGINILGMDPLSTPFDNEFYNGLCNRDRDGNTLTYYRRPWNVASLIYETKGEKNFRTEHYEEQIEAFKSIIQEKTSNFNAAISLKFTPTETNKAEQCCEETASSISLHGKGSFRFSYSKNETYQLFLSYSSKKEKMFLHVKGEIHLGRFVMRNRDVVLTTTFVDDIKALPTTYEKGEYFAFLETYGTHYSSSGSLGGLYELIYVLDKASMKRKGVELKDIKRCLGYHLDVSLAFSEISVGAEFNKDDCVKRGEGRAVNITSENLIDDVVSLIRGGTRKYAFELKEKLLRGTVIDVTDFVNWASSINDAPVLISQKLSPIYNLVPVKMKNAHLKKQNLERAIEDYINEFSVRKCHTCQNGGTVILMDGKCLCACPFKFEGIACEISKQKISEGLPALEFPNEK
UniProt P13671, residues 22-934: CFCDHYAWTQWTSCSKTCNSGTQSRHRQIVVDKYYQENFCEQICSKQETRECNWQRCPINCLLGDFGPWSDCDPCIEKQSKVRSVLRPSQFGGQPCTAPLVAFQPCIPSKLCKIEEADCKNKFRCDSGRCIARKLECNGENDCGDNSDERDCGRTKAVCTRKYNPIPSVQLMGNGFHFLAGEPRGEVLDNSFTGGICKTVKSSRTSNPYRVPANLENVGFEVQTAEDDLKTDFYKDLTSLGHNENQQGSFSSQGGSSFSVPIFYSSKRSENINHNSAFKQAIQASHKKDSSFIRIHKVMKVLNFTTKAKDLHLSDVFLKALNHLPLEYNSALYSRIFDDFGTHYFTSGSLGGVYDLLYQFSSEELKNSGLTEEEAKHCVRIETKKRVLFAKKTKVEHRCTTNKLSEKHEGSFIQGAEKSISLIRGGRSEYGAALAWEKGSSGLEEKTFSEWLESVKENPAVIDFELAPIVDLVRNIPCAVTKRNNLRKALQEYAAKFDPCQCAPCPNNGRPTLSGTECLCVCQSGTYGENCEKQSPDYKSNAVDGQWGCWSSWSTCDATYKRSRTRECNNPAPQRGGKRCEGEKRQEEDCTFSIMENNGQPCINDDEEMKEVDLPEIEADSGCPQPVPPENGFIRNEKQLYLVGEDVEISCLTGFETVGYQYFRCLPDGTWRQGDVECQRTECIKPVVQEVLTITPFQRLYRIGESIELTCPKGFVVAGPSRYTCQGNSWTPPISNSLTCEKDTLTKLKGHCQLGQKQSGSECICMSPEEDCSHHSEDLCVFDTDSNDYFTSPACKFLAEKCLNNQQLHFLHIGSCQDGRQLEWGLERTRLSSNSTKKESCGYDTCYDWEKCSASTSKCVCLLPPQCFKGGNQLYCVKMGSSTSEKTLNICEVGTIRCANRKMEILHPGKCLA
UniProt P08603, residues 19-1231: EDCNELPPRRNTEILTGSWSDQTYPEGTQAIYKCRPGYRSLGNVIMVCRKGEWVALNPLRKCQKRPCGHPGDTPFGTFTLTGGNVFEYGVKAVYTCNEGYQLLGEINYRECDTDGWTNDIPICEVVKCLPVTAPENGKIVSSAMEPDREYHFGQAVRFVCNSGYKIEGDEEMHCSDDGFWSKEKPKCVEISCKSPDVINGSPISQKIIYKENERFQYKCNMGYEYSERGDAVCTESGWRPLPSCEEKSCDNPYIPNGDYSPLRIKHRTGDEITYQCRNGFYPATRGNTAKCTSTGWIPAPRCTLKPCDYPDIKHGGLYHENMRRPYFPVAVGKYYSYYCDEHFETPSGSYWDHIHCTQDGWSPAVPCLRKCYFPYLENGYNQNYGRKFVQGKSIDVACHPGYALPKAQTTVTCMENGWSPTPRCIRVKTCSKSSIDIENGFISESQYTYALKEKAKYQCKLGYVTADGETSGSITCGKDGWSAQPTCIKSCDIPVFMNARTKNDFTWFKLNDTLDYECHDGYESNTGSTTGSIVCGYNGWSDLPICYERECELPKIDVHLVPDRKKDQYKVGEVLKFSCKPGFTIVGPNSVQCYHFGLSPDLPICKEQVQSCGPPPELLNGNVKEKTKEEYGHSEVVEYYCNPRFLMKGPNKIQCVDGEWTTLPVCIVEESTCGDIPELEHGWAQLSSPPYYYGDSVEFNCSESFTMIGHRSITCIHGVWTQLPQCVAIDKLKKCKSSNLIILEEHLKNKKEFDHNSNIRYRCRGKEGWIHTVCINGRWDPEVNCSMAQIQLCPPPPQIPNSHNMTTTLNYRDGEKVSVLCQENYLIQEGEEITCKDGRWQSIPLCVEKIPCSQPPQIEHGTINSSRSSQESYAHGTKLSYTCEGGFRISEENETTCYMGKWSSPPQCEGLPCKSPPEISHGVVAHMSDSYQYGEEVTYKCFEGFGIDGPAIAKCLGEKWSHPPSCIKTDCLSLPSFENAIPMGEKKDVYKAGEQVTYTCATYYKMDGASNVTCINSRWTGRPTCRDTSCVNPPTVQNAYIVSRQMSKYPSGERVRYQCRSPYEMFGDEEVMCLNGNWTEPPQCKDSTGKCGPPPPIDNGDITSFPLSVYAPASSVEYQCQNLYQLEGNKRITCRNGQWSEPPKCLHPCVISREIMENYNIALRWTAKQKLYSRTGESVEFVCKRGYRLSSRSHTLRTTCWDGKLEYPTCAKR

Columns and labels:
Test in all cases: ELISA; complement proteins immobilised in microtiter plates; 25 nM hFH or MFHR1^V62; detected with anti-FH polyclonal antibodies; both purified
C7 (human) = C7 (human) (UniProt P10643)
C8 (human) = C8 (human) (UniProt P07357+P07358+P07360)
C9 (human) = C9 (human) (UniProt P02748)
C6 (human) = C6 (human) (UniProt P13671)

- binding (C7 (human)): no binding (tested: 25 nM)
- binding (C8 (human)): no binding (tested: 25 nM)
- binding (C9 (human)): no binding (tested: 25 nM)
- binding (C6 (human)): no binding (tested: 25 nM)
Substance: human factor H, plasma-derived (hFH) (from UniProt P08603 19-1231)
